{"sequences": {"note": "Amino acid sequences for entries named in this document (tags omitted). A change or cut given only in a name is not applied to a line headed by its entry. Chains listed by the source or under a name are the forms on record and can include a tag or linker.", "UniProt Q9UKB1": "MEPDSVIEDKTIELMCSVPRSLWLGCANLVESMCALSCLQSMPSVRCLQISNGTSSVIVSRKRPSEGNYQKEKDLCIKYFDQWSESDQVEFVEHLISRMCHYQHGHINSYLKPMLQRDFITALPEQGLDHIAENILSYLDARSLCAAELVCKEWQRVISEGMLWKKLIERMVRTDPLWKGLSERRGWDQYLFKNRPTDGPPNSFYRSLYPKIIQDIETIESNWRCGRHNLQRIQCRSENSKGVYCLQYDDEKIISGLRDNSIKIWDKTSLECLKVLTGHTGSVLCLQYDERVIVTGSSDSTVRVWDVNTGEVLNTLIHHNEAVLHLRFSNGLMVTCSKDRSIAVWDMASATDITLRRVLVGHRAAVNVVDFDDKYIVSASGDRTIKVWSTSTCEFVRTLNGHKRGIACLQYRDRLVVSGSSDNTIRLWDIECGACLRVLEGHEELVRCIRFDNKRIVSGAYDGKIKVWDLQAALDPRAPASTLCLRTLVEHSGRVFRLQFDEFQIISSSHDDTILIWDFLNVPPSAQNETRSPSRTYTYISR", "BTRC-Myc (Q9Y297, form named)": "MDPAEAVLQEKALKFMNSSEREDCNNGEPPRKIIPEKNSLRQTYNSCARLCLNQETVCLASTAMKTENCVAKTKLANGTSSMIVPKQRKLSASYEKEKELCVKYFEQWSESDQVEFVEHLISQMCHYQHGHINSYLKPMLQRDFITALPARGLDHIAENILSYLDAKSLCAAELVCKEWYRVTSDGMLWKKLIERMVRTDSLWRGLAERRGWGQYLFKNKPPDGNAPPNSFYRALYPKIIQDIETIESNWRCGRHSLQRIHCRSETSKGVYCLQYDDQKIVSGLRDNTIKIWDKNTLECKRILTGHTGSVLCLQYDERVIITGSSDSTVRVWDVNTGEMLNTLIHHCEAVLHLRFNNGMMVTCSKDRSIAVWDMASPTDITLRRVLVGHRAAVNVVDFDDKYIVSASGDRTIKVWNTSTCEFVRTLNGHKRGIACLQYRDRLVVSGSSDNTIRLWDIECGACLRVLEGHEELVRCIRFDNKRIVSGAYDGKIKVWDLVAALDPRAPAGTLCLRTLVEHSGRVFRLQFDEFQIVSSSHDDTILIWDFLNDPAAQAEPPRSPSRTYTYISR"}, "source": "patent US20200246488A1", "key": {"[1]": {"molecular_target": "FBXW11-HA (UniProt Q9UKB1)", "test": "co-immunoprecipitation in HEK293T cells, anti-StrepII pull-down, blot for HA (FIG. 2D)"}, "[2]": {"molecular_target": "BTRC-Myc (UniProt Q9Y297)", "test": "co-immunoprecipitation in HEK293T cells, anti-StrepII pull-down, blot for Myc (FIG. 2C)"}}, "note": "Results are given in words; binding and its absence hold for the method and conditions named. In cells and extracts the contact can be indirect. Some entries that bind do so weakly or less than the wild type. Sequences can lack the tags named with a protein."}
{"binder": "full-length (FL) FLAG-StrepII-C1orf106 (protein, UniProt Q3KP66-3 1-578, looked up, not shown: small tags and cut ends) MESKDEVSDTDSGIILQSGPDSPVSPMKELTHAVHKQQRALEARLEACLEELRRLCLREAELTGTLPAEYPLKPGEKAPKVRRRIGAAYKLDDWALHREDPLSSLERQLALQLQITEAARRLCLEENLSRQARRQRKHSMLQEEKKLQELQRCLVERRRNSEPPPAAALPLGRELSASDDSSLSDGLLLEEEESQVPKPPPESPAPPSRPLPPQTLEGLQPTGPEAGSPERAPVQNSPWKETSLDHPYEKPRKSSEPWSESSSPATTPQDGPSASSLWLLEPASYHVVPIRGVPGQWQGRTSAPATPEIQGRRGQSQSLRVDSFRAGPEGRGRSAFPRRRPTHYTVTVPDSCFPATKPPLPHAACHSCSEDSGSDVSSISHPTSPGSSSPDISFLQPLSPPKTHRHRGAWVPAGSRELVAHHPKLLLPPGYFPAGRYVVVAESPLPPGEWELRRAAPGPAYEEEGTPLRYQRLVPSRSRIVRTPSLKDSPAGRGLSKAAVSEELKWWHERARLRSTRPHSLDRQGAFRVRSLPLGREGFGRALGPRAQVPTVCVLRRSPDGAPVQVFVPEKGEIISQV", "values": [{"measurement": "binding", "setting": "[1]", "result": "binds"}, {"measurement": "binding", "setting": "[2]", "result": "binds"}]}
